PubChem BioAssay AID493246 | Drosophila RNAi Screening Center – 2011

Assay: 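Genome-wide search for dsRNAs that reduce cell number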 (primary screen)
System: Drosophila Kc and S2R+ cells
Reagent: long dsRNA against Drosophila genes
Measurement: 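Cell number per well after knock-down, printed as raw plate values; calls were based on per-plate z-scores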
Direction: Kc cell number and S2R+ cell number: higher = more cells remaining
Call rule: 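Active when the per-plate z-score of cell number is 3 or more in the direction of fewer cells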
The deposit covers about 21,000 reagents; below is a random part of those that have a named target and a result. Of all reagents, 429 (2%) were called active. 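Values are raw and not normalised between plates; calls rest on per-plate z-scores that were not deposited.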 The numbers tell different reagents against one gene apart. A plus sign joins genes that one reagent is predicted to hit. Not given: the amount of reagent, the time to read-out.

{"gene knocked down": "Hsc70-2 (Heat shock protein 70 cognate 2)", "reagent": 1, "Kc cell number, rep 1": 1.46e6, "Kc cell number, rep 2": 1.43e6, "S2R+ cell number, rep 1": 1.02e6, "S2R+ cell number, rep 2": 1.11e6, "call": "inactive"}
{"gene knocked down": "RpL9 (Ribosomal protein L9)", "reagent": 1, "Kc cell number, rep 1": 1.12e6, "Kc cell number, rep 2": 1.27e6, "S2R+ cell number, rep 1": 6.53e5, "S2R+ cell number, rep 2": 7.69e5, "call": "active"}
{"gene knocked down": "prd (paired)", "reagent": 1, "Kc cell number, rep 1": 1.36e6, "Kc cell number, rep 2": 1.35e6, "S2R+ cell number, rep 1": 1.34e6, "S2R+ cell number, rep 2": 1.32e6, "call": "inactive"}
{"gene knocked down": "Pgam5 (Phosphoglycerate mutase 5)", "reagent": 1, "Kc cell number, rep 1": 4.74e5, "S2R+ cell number, rep 1": 7.47e5, "call": "inactive"}
{"gene knocked down": "CG34229", "reagent": 1, "Kc cell number, rep 1": 1.63e6, "Kc cell number, rep 2": 1.61e6, "S2R+ cell number, rep 1": 1.28e6, "S2R+ cell number, rep 2": 1.41e6, "call": "inactive"}
{"gene knocked down": "CG14020", "reagent": 1, "Kc cell number, rep 1": 1.50e6, "Kc cell number, rep 2": 1.38e6, "S2R+ cell number, rep 1": 1.13e6, "S2R+ cell number, rep 2": 1.24e6, "call": "inactive"}
{"gene knocked down": "Gss1 + Gss2", "reagent": 1, "Kc cell number, rep 1": 1.61e6, "Kc cell number, rep 2": 1.57e6, "S2R+ cell number, rep 1": 1.13e6, "S2R+ cell number, rep 2": 1.20e6, "call": "inactive"}
{"gene knocked down": "CG34444", "reagent": 1, "Kc cell number, rep 1": 1.48e6, "Kc cell number, rep 2": 1.57e6, "S2R+ cell number, rep 1": 1.27e6, "S2R+ cell number, rep 2": 1.39e6, "call": "inactive"}
{"gene knocked down": "CG10947", "reagent": 1, "Kc cell number, rep 1": 1.36e6, "Kc cell number, rep 2": 1.43e6, "S2R+ cell number, rep 1": 1.31e6, "S2R+ cell number, rep 2": 1.28e6, "call": "inactive"}
{"gene knocked down": "CG31122", "reagent": 1, "Kc cell number, rep 1": 1.36e6, "Kc cell number, rep 2": 1.40e6, "S2R+ cell number, rep 1": 9.60e5, "S2R+ cell number, rep 2": 1.06e6, "call": "inactive"}
{"gene knocked down": "CG31122", "reagent": 2, "Kc cell number, rep 1": 1.26e6, "Kc cell number, rep 2": 1.18e6, "S2R+ cell number, rep 1": 1.09e6, "S2R+ cell number, rep 2": 1.20e6, "call": "inactive"}
{"gene knocked down": "Hsp70Aa + Hsp70Ab", "reagent": 1, "Kc cell number, rep 1": 1.48e6, "Kc cell number, rep 2": 1.47e6, "S2R+ cell number, rep 1": 7.57e5, "S2R+ cell number, rep 2": 8.57e5, "call": "inactive"}
{"gene knocked down": "Lsm10", "reagent": 1, "Kc cell number, rep 1": 1.54e6, "Kc cell number, rep 2": 1.61e6, "S2R+ cell number, rep 1": 1.25e6, "S2R+ cell number, rep 2": 1.46e6, "call": "inactive"}
{"gene knocked down": "CG15177", "reagent": 1, "Kc cell number, rep 1": 1.41e6, "Kc cell number, rep 2": 1.58e6, "S2R+ cell number, rep 1": 1.19e6, "S2R+ cell number, rep 2": 1.31e6, "call": "inactive"}
{"gene knocked down": "Tektin-C (Tektin C)", "reagent": 1, "Kc cell number, rep 1": 1.47e6, "Kc cell number, rep 2": 1.38e6, "S2R+ cell number, rep 1": 7.47e5, "S2R+ cell number, rep 2": 8.17e5, "call": "inactive"}
{"gene knocked down": "ZnT77C (Zinc transporter 77C)", "reagent": 1, "Kc cell number, rep 1": 1.41e6, "Kc cell number, rep 2": 1.44e6, "S2R+ cell number, rep 1": 1.24e6, "S2R+ cell number, rep 2": 1.29e6, "call": "inactive"}
{"gene knocked down": "ZnT77C (Zinc transporter 77C)", "reagent": 2, "Kc cell number, rep 1": 1.43e6, "Kc cell number, rep 2": 1.51e6, "S2R+ cell number, rep 1": 1.25e6, "S2R+ cell number, rep 2": 1.32e6, "call": "inactive"}
{"gene knocked down": "CG34423 + Mthfs", "reagent": 1, "Kc cell number, rep 1": 1.56e6, "Kc cell number, rep 2": 1.66e6, "S2R+ cell number, rep 1": 1.36e6, "S2R+ cell number, rep 2": 1.36e6, "call": "inactive"}
{"gene knocked down": "UbcE2M (NEDD8-conjugating enzyme UbcE2M)", "reagent": 1, "Kc cell number, rep 1": 1.46e6, "Kc cell number, rep 2": 1.31e6, "S2R+ cell number, rep 1": 1.25e6, "S2R+ cell number, rep 2": 1.48e6, "call": "inactive"}
{"gene knocked down": "Npc2a (Niemann-Pick type C-2a)", "reagent": 1, "Kc cell number, rep 1": 1.48e6, "Kc cell number, rep 2": 1.54e6, "S2R+ cell number, rep 1": 1.08e6, "S2R+ cell number, rep 2": 1.20e6, "call": "inactive"}
{"gene knocked down": "CG7099", "reagent": 1, "Kc cell number, rep 1": 1.24e6, "Kc cell number, rep 2": 1.31e6, "S2R+ cell number, rep 1": 1.21e6, "S2R+ cell number, rep 2": 1.24e6, "call": "inactive"}

3 consecutive reagents from above, quoted:
{"gene knocked down": "ZnT77C (Zinc transporter 77C)", "reagent": 2, "Kc cell number, rep 1": 1.43e6, "Kc cell number, rep 2": 1.51e6, "S2R+ cell number, rep 1": 1.25e6, "S2R+ cell number, rep 2": 1.32e6, "call": "inactive"}
{"gene knocked down": "CG34423 + Mthfs", "reagent": 1, "Kc cell number, rep 1": 1.56e6, "Kc cell number, rep 2": 1.66e6, "S2R+ cell number, rep 1": 1.36e6, "S2R+ cell number, rep 2": 1.36e6, "call": "inactive"}
{"gene knocked down": "UbcE2M (NEDD8-conjugating enzyme UbcE2M)", "reagent": 1, "Kc cell number, rep 1": 1.46e6, "Kc cell number, rep 2": 1.31e6, "S2R+ cell number, rep 1": 1.25e6, "S2R+ cell number, rep 2": 1.48e6, "call": "inactive"}
